Assay results as given in patent US20070042947A1 (Takeda Pharmaceutical Company Limited, priority 2003, published 2007).

Legend:
[1] = general procedure: Fmoc solid-phase peptide synthesis; Wang (p-benzyloxybenzyl alcohol) resin; HBTU; settings: whole synthesis, scale of the general procedure 0.25 mmol
[2] = general procedure: Fmoc solid-phase peptide synthesis; Wang resin; HBTU; settings: whole synthesis, scale 0.25 mmol

## [Phe^2] Human GPR8 Ligand (1-20)
[1]
  final HPLC purity: 98.8%
[2]
  isolated mass: 35 mg
